doi:10.1101/2023.04.27.538571

Legend:
[1] = target: T1, nYFP-IRT1vr (Arabidopsis thaliana) (UniProt Q38856); experiment: split reporter
T1 sequence: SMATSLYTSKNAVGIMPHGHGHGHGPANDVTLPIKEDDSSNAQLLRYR

[2] = target: EHB1-GFP (Arabidopsis thaliana); experiment: FRET or BRET
[3] = target: nYFP-EHB1 (Arabidopsis thaliana); experiment: split reporter

Molecule: cYFP-EHB1Δsig (Arabidopsis thaliana)
- binding [1]: no binding

B1: TTN5^T30N-mCherry (protein, UniProt Q9ZPX1 1-185)
chain: MGLLSIIRKIKKKEKEMRILMVGLDNSGKNTIVLKINGEDTSVISPTLGFNIKTIIYQKYTLNIWDVGGQKTIRSYWRNYFEQTDGLVWVVDSSDLRRLDDCKMELDNLLKEERLAGSSLLILANKQDIQGALTPDEIGKVLNLESMDKSRHWKIVGCSAYTGEGLLEGFDWLVQDIASRIYMLD
- binding [2]: binds

B2: TTN5^Q70L-mCherry (protein, UniProt Q9ZPX1 1-185)
chain: B1 chain with N30T, Q70L
- binding [2]: binds

B3: cYFP-TTN5^T30N (protein, UniProt Q9ZPX1 1-185)
chain: B1 chain
- binding [3]: no binding

B4: cYFP-TTN5^Q70L (protein, UniProt Q9ZPX1 1-185)
chain: B1 chain with N30T, Q70L
- binding [3]: no binding

Where a chain is given by its changes, count along the chain named. Names and notes keep the numbering of the source. No constants are given. Whether binding was seen depends on the method and setting. In cells and extracts the contact can be indirect. For some assays here: Binding can be weak; no strength is given. For some assays here: Sequences can lack the tags named with a protein.
